Test: 13-week oral dosing in cynomolgus monkeys: whole-body DEXA scan (lean mass, bone mineral density, bone mineral content, fat mass)
Format: in vivo, cynomolgus monkeys (Macaca fascicularis)
Conditions: female monkeys, 10 and 50 mg/kg oral once daily, pre-dose vs week 13
Procedure: Sexually-mature (age range of ˜4 years at pre-dose), purpose-bred cynomolgus monkeys (Macaca fascicularis) of Asian origin were used. Sexual maturity was proven by recording of at least two menstrual bleedings (with 20-to-50 days between menstruations) prior to entry into the study.
NHPs were divided into three treatment groups: vehicle control (N=6) and compound k-5 Dose Groups of 10 mg/kg (N=4) and 50 mg/kg (N=6), respectively. All NHPs were dosed once daily (morning) by oral gavage over the 13 week treatment period of the study. The dose vehicle was 0.5% methylcellulose (Methocel® from Colorcon) in water.
All NHPs were subjected to a body weight measurement and DEXA scan (Dual-energy X-ray absorptiometry, Hologic Dexa QDR® 4000) in the pre-dose phase and in the final week (week-13) of the dosing phase. The measurements were made under ketamine anesthesia with dorbene and antisedan.
The whole body was scanned by DEXA for measurement of lean mass, bone mineral density, bone mineral content and fat mass.

Cc1nsc(-c2nnc3n2CCN(C(=O)c2ccc(F)cc2)[C@@H]3C)n1 [k-5, (R)-(4-fluorophenyl)(8-methyl-3-(3-methyl-1,2,4-thiadiazol-5-yl)-5,6-dihydro-[1,2,4]triazolo[4,3-a]pyrazin-7(8H)-yl)methanone]
no significant changes: change in bone mineral content (DEXA) | change in bone mineral density (DEXA) | change in lean mass (DEXA)
